# Reference: the supplement of paper PMC6411743
# By UniProt entry, the sequences of proteins in these tests, tags left out. Where a name states a change or a piece, a line headed by the entry shows the natural chain unless it says otherwise.
# UniProt Q2TBE0: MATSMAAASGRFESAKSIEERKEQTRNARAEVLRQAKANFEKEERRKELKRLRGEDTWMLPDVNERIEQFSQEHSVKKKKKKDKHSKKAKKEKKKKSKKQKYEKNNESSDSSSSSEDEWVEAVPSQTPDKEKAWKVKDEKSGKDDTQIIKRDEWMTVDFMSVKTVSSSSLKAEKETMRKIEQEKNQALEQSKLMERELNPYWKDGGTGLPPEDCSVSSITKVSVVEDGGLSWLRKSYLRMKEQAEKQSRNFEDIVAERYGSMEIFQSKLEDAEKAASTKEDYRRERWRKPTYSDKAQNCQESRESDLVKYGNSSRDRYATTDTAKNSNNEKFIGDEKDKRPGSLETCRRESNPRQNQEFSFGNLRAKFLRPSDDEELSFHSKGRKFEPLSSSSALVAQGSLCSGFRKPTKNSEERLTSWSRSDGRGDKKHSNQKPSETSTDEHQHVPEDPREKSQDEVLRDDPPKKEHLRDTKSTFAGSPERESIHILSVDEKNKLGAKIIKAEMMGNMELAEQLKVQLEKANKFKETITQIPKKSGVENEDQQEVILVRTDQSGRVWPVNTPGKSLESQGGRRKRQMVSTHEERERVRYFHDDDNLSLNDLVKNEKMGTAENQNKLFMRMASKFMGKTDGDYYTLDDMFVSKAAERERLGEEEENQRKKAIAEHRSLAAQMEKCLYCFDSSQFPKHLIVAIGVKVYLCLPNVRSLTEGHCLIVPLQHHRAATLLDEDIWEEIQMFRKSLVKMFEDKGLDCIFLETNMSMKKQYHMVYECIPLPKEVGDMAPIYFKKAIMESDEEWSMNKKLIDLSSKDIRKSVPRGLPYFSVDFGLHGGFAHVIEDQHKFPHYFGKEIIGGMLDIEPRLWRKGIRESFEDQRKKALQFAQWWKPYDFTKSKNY
# UniProt Q15645: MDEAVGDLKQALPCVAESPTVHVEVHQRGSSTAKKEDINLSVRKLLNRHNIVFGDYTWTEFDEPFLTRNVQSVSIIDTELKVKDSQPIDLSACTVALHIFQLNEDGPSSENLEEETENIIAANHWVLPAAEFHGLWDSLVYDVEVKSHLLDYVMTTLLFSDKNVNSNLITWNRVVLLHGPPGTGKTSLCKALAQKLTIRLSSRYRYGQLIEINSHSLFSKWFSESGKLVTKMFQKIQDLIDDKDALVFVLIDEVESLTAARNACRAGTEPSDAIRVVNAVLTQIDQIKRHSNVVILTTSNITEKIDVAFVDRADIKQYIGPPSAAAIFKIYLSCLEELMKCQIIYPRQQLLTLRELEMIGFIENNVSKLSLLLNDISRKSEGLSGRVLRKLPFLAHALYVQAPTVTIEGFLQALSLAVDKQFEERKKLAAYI
# UniProt Q5TC82: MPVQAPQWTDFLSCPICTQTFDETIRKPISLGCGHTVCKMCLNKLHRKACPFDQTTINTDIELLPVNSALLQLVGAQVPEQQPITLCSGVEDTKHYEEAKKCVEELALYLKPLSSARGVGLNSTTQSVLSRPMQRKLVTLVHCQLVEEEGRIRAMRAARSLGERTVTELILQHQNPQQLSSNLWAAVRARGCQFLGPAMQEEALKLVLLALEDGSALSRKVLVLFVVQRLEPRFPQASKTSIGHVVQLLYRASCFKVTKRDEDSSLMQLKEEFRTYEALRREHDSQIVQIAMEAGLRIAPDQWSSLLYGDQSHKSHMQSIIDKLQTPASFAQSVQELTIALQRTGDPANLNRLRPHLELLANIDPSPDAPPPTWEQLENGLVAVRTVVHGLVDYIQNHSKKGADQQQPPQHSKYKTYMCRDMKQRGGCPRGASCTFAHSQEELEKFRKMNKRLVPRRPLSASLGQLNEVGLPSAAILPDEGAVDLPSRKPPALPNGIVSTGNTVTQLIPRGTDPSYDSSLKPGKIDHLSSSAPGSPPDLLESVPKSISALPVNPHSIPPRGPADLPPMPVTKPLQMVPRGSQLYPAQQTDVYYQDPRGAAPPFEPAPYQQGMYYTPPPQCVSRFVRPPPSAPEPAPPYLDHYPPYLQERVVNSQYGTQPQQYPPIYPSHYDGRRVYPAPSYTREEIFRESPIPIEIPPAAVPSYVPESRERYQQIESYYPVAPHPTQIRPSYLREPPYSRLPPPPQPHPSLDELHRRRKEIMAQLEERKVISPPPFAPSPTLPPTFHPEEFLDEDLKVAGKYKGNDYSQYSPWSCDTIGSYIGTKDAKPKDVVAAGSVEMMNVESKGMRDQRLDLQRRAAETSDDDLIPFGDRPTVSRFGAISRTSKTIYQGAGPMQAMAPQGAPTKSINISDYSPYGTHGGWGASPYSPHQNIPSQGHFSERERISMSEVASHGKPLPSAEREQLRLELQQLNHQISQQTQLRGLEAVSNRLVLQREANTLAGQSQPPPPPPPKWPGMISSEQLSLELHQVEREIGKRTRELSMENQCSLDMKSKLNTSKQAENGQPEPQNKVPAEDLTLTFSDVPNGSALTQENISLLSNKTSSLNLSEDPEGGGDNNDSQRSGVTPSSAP
# UniProt Q53H54: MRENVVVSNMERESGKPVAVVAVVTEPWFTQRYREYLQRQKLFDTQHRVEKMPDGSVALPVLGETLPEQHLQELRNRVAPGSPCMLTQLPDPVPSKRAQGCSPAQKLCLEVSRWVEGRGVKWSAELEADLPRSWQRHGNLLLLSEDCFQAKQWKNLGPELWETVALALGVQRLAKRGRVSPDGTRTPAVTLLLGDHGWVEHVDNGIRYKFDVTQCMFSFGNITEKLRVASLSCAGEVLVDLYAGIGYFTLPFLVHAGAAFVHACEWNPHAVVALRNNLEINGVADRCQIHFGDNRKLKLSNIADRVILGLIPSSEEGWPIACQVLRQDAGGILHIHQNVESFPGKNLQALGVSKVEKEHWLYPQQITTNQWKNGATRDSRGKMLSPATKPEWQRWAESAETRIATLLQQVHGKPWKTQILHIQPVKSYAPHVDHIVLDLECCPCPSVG
# UniProt Q15388, whole entry: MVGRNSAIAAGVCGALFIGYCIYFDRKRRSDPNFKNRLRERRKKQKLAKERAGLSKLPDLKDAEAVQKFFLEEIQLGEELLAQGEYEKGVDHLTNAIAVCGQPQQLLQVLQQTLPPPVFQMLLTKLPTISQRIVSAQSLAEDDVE
# UniProt Q5JS54: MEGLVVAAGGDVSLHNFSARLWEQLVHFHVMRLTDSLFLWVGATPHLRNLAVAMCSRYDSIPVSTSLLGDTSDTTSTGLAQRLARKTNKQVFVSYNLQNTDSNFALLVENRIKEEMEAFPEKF
# UniProt Q16401: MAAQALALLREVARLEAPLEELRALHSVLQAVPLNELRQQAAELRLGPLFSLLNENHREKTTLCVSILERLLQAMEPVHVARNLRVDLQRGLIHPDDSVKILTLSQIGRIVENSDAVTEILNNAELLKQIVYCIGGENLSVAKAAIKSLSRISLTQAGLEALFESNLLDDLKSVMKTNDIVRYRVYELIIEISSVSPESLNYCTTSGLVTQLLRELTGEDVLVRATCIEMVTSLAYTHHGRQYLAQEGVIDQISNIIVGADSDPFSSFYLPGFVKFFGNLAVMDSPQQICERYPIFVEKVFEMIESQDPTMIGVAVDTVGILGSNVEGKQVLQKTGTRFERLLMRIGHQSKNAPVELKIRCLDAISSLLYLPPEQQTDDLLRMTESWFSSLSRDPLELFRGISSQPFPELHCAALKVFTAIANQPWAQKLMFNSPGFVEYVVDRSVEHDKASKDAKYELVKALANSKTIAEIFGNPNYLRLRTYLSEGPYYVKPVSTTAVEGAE
# UniProt Q58FG1, whole entry: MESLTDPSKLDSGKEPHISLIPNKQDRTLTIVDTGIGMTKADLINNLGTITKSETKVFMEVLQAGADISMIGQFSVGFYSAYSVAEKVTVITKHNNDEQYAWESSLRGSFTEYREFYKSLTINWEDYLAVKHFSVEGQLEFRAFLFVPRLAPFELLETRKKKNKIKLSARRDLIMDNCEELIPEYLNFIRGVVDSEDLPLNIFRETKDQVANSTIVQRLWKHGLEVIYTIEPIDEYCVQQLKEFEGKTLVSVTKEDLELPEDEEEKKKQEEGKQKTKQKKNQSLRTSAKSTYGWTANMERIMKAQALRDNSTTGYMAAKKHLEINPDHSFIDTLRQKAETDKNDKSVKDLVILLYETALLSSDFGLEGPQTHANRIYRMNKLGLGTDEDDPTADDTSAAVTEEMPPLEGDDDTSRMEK
# UniProt Q15435: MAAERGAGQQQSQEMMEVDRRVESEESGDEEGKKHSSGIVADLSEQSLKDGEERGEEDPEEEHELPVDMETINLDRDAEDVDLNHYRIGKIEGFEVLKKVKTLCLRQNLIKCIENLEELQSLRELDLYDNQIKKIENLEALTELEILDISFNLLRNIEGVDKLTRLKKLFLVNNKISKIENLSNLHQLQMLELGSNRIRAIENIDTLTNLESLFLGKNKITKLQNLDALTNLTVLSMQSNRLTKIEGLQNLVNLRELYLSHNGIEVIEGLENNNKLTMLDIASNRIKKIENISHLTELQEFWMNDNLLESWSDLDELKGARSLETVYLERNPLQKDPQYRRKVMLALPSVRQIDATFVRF
# UniProt Q16186: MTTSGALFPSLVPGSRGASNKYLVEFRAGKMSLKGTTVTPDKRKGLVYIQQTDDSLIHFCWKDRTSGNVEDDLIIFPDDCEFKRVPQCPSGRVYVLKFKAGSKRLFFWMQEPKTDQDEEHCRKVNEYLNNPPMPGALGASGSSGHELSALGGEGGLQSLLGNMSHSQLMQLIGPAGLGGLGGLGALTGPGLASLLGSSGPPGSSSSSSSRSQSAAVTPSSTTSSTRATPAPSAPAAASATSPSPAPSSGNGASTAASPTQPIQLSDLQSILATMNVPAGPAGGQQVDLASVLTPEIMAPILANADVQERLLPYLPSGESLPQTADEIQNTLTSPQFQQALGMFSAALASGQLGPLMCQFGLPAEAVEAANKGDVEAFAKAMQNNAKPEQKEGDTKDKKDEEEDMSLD
# UniProt Q5T8P6: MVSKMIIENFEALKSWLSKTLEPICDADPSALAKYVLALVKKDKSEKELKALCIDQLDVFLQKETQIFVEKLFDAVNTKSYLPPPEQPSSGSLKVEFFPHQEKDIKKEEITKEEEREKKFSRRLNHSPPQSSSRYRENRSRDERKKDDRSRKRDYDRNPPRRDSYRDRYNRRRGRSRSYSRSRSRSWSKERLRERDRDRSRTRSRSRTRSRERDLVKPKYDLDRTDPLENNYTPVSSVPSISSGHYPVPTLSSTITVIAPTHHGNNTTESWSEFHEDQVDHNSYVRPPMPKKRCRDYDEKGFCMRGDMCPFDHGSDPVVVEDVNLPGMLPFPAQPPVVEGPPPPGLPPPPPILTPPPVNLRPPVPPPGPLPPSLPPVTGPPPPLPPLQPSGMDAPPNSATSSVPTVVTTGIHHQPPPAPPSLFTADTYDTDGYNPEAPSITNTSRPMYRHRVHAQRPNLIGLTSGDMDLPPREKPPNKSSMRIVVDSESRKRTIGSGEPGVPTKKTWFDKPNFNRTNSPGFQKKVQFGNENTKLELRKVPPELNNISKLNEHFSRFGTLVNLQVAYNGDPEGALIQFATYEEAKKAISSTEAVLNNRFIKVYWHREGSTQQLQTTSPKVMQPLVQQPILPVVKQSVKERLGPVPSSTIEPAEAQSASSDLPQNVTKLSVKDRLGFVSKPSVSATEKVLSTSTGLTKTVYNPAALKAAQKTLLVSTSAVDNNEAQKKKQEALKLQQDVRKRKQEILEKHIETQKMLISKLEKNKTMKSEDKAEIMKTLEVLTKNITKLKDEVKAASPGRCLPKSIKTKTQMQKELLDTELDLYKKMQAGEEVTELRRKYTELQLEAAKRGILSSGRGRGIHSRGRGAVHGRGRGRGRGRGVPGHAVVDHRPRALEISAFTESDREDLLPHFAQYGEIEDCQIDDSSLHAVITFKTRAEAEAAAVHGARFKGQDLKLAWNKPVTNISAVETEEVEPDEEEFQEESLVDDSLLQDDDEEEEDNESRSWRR
# UniProt Q3MII6: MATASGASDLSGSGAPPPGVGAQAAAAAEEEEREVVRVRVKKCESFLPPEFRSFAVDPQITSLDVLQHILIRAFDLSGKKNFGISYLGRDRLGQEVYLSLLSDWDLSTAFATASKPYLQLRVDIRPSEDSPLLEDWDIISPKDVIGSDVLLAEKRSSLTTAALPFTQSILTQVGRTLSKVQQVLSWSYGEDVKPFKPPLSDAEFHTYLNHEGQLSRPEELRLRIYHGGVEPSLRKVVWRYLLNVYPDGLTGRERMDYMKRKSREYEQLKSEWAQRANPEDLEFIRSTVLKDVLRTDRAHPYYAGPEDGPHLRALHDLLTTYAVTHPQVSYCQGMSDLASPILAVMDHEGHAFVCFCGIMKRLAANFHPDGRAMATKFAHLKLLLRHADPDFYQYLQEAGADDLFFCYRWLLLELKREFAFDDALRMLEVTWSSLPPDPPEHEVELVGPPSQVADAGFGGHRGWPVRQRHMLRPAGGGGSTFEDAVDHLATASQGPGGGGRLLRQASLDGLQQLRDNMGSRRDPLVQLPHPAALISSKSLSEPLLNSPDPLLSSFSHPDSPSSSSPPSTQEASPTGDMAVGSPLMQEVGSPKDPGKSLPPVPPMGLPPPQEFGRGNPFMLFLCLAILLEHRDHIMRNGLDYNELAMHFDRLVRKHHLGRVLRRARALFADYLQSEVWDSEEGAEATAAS
# ± gives the standard deviation of the averaged measurements. The list shows a part of the results, in another mix than the full data.
# Compound: Nc1ncnc2c1ncn2[C@@H]1O[C@H](COP(=O)(O)OP(=O)(O)NP(=O)(O)O)[C@@H](O)[C@H]1O [adenylyl imidodiphosphate]
# Test: NP40-soluble protein abundance relative to vehicle (solubility fold change) (ratio); higher = more soluble protein in presence of AMP-PNP
# Method in brief: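 Crude Jurkat lysate, prepared by Dounce homogenisation, was exposed to eight concentrations from 0.1 to 10 mM for 10 min at room temperature and then 3 min at 37 °C. Solubilisation used 0.8% NP40 with benzonase for 60 min at 4 °C, followed by ultracentrifugation and TMT labelling of the supernatant for LC-MS/MS. After vsn normalisation of intensities, each value is the fold change against the detergent-processed vehicle within each replicate, across three independent experiments.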
Target,NP40-soluble protein abundance (concentration: 1mM),NP40-soluble protein abundance (concentration: 2mM),NP40-soluble protein abundance (concentration: 4mM),NP40-soluble protein abundance (concentration: 6mM),NP40-soluble protein abundance (concentration: 8mM),NP40-soluble protein abundance (concentration: 10mM)
UniProt Q5TCQ9-4,0.99 ± 0.012,1 ± 0.012,1.02 ± 0.031,1.002 ± 0.0059,1 ± 0.014,0.982 ± 0.016
UniProt Q2TBE0 and related entries,1.06 ± 0.036,1.09 ± 0.03,1.11 ± 0.046,1.1 ± 0.049,1.1 ± 0.033,1.15 ± 0.049
UniProt Q5HYK3 and related entries,0.968 ± 0.052,0.964 ± 0.041,0.983 ± 0.085,0.96 ± 0.058,0.97 ± 0.038,0.971 ± 0.069
UniProt Q5T6F0,0.934 ± 0.1,0.994 ± 0.0043,1.01 ± 0.08,0.975 ± 0.039,0.9429 ± 0.0043,0.929 ± 0.036
UniProt Q5JWR5 and related entries,0.986 ± 0.038,0.977 ± 0.012,0.937 ± 0.023,0.969 ± 0.035,0.954 ± 0.028,0.928 ± 0.013
UniProt Q3T8J9 and related entries,0.988 ± 0.026,1.01 ± 0.042,0.983 ± 0.032,1.01 ± 0.021,0.9804 ± 0.0084,0.985 ± 0.032
NT5DC1 (UniProt Q5TFE4),0.994 ± 0.048,0.948 ± 0.083,1.02 ± 0.031,0.984 ± 0.042,1.02 ± 0.025,0.975 ± 0.016
Q15392 and related entries (UniProt Q3LIE7+Q15392),0.954 ± 0.039,0.837 ± 0.13,0.961 ± 0.1,1.03 ± 0.037,1.08 ± 0.078,0.984 ± 0.086
AGK (UniProt Q53H12),1 ± 0.027,0.951 ± 0.017,1 ± 0.024,0.95 ± 0.022,0.95 ± 0.07,0.904 ± 0.057
C9orf64 (UniProt Q5T6V5),0.982 ± 0.041,0.935 ± 0.063,1 ± 0.02,0.937 ± 0.025,0.98 ± 0.016,0.937 ± 0.028
TRIP13 (UniProt Q15645),1 ± 0.07,0.896 ± 0.085,0.975 ± 0.056,0.884 ± 0.025,0.946 ± 0.031,0.858 ± 0.034
UniProt Q5TC82 and related entries,0.995 ± 0.03,1.01 ± 0.033,0.999 ± 0.039,1 ± 0.036,1.02 ± 0.024,0.971 ± 0.032
UniProt Q17R31 and related entries,1.04 ± 0.011,1.06 ± 0.047,1.09 ± 0.034,1.038 ± 0.0053,1.05 ± 0.021,1.1 ± 0.07
LLGL1 (UniProt Q15334),0.976 ± 0.013,0.9958 ± 0.0077,0.975 ± 0.015,0.906 ± 0.028,0.908 ± 0.019,0.915 ± 0.019
UniProt Q15633 and related entries,0.963 ± 0.015,0.964 ± 0.024,0.995 ± 0.019,0.984 ± 0.049,0.977 ± 0.044,0.979 ± 0.064
Q5TH58 and related entries (UniProt Q9H6K1),0.998 ± 0.02,1.03 ± 0.039,0.9959 ± 0.0093,1.006 ± 0.0065,0.974 ± 0.0093,0.989 ± 0.019
UniProt Q5JTV8 and related entries,0.964 ± 0.013,1.02 ± 0.044,0.9623 ± 0.0028,0.9942 ± 0.0063,0.973 ± 0.013,0.983 ± 0.031
LGALSL (UniProt Q3ZCW2),1 ± 0.035,1.01 ± 0.061,1.01 ± 0.058,1.02 ± 0.021,1 ± 0.022,1.02 ± 0.025
TRMT12 (UniProt Q53H54),1.02 ± 0.062,0.997 ± 0.067,1.01 ± 0.049,0.994 ± 0.033,0.962 ± 0.063,0.98 ± 0.068
STXBP2 (UniProt Q15833),0.956 ± 0.023,0.934 ± 0.013,0.951 ± 0.014,0.946 ± 0.024,0.952 ± 0.04,0.933 ± 0.02

# Nothing new here: an excerpt of the list.
Target,NP40-soluble protein abundance (concentration: 1mM),NP40-soluble protein abundance (concentration: 2mM),NP40-soluble protein abundance (concentration: 4mM),NP40-soluble protein abundance (concentration: 6mM),NP40-soluble protein abundance (concentration: 8mM),NP40-soluble protein abundance (concentration: 10mM)
UniProt Q15633 and related entries,0.963 ± 0.015,0.964 ± 0.024,0.995 ± 0.019,0.984 ± 0.049,0.977 ± 0.044,0.979 ± 0.064
Q5TH58 and related entries (UniProt Q9H6K1),0.998 ± 0.02,1.03 ± 0.039,0.9959 ± 0.0093,1.006 ± 0.0065,0.974 ± 0.0093,0.989 ± 0.019
UniProt Q5JTV8 and related entries,0.964 ± 0.013,1.02 ± 0.044,0.9623 ± 0.0028,0.9942 ± 0.0063,0.973 ± 0.013,0.983 ± 0.031
LGALSL (UniProt Q3ZCW2),1 ± 0.035,1.01 ± 0.061,1.01 ± 0.058,1.02 ± 0.021,1 ± 0.022,1.02 ± 0.025
TRMT12 (UniProt Q53H54),1.02 ± 0.062,0.997 ± 0.067,1.01 ± 0.049,0.994 ± 0.033,0.962 ± 0.063,0.98 ± 0.068

# (next part)

Target,NP40-soluble protein abundance (concentration: 1mM),NP40-soluble protein abundance (concentration: 2mM),NP40-soluble protein abundance (concentration: 4mM),NP40-soluble protein abundance (concentration: 6mM),NP40-soluble protein abundance (concentration: 8mM),NP40-soluble protein abundance (concentration: 10mM)
E2F4 (UniProt Q16254),1 ± 0.012,1.046 ± 0.0071,1.01 ± 0.014,0.99 ± 0.02,0.987 ± 0.041,0.9797 ± 0.0063
UniProt Q16698-2|Q16698,1.06 ± 0.085,1.11 ± 0.058,1.19 ± 0.08,1.21 ± 0.014,1.26 ± 0.041,1.25 ± 0.02
CROCC (UniProt Q5TZA2),0.9823 ± 0.0093,1.03 ± 0.037,0.977 ± 0.032,0.9698 ± 0.0079,0.949 ± 0.013,0.932 ± 0.028
UniProt Q53F19,0.99 ± 0.012,0.992 ± 0.026,0.982 ± 0.029,1 ± 0.035,1.02 ± 0.013,1.06 ± 0.058
UBAP2 (UniProt Q5T6F2),1.06 ± 0.022,1.1 ± 0.096,1.07 ± 0.038,1.04 ± 0.033,1.01 ± 0.021,1.05 ± 0.045
TOMM20 (UniProt Q15388),0.964 ± 0.018,1.08 ± 0.11,0.973 ± 0.072,1.04 ± 0.12,1.04 ± 0.062,1.03 ± 0.13
SURF2 (UniProt Q15527),1.02 ± 0.057,1.06 ± 0.086,0.997 ± 0.058,1.04 ± 0.11,1.08 ± 0.066,1.09 ± 0.053
UniProt Q5T5Y3 and related entries,1.04 ± 0.036,1.06 ± 0.052,1.05 ± 0.03,0.996 ± 0.033,1 ± 0.029,1 ± 0.023
Q5STZ8 and related entries (UniProt Q8NE71),1 ± 0.017,1.01 ± 0.014,1.08 ± 0.022,1.12 ± 0.049,1.13 ± 0.041,1.18 ± 0.017
UniProt Q15329 and related entries,0.974 ± 0.018,1.02 ± 0.056,0.962 ± 0.016,0.997 ± 0.043,0.971 ± 0.03,0.966 ± 0.027
CMPK2 (UniProt Q5EBM0),0.993 ± 0.016,0.972 ± 0.027,1.01 ± 0.013,0.968 ± 0.018,1 ± 0.02,0.974 ± 0.029
UniProt Q15910 and related entries,1.02 ± 0.04,1.08 ± 0.038,1.09 ± 0.038,1.12 ± 0.023,1.12 ± 0.026,1.21 ± 0.03
HNRNPUL2 (UniProt Q1KMD3),0.976 ± 0.1,0.971 ± 0.07,0.939 ± 0.13,0.933 ± 0.16,0.914 ± 0.13,0.935 ± 0.18
UniProt Q5T011 and related entries,0.882 ± 0.14,0.91 ± 0.071,0.912 ± 0.076,0.864 ± 0.16,0.809 ± 0.045,0.803 ± 0.056
UniProt Q5JS54 and related entries,1.0077 ± 0.00064,1 ± 0.014,0.999 ± 0.022,0.99 ± 0.014,1.01 ± 0.027,0.98628 ± 0.00064
ESCO2 (UniProt Q56NI9),1.005 ± 0.0049,1.02 ± 0.02,1.02 ± 0.021,1.02 ± 0.014,1.03 ± 0.044,1 ± 0.031
UniProt Q16401 and related entries,0.977 ± 0.026,0.93 ± 0.058,0.975 ± 0.013,0.955 ± 0.026,0.992 ± 0.024,0.96 ± 0.019
UniProt Q15286,0.958 ± 0.041,0.962 ± 0.037,0.974 ± 0.022,1 ± 0.043,1 ± 0.031,0.992 ± 0.028
UniProt Q4G148 and related entries,0.9836 ± 0.0086,1.01 ± 0.04,1 ± 0.044,1.02 ± 0.097,1.04 ± 0.058,1.06 ± 0.059
UniProt Q3B7T1 and related entries,1.01 ± 0.01,0.986 ± 0.016,0.988 ± 0.039,0.981 ± 0.046,1.009 ± 0.0097,0.988 ± 0.044

Target,NP40-soluble protein abundance (concentration: 1mM),NP40-soluble protein abundance (concentration: 2mM),NP40-soluble protein abundance (concentration: 4mM),NP40-soluble protein abundance (concentration: 6mM),NP40-soluble protein abundance (concentration: 8mM),NP40-soluble protein abundance (concentration: 10mM)
UniProt Q5JS37 and related entries,0.973 ± 0.021,0.967 ± 0.053,0.963 ± 0.056,1 ± 0.042,1 ± 0.041,0.98 ± 0.076
UniProt Q15365,1.031 ± 0.0057,1.04 ± 0.038,1.04 ± 0.033,1 ± 0.02,1.01 ± 0.014,1.01 ± 0.03
UniProt Q53EL6 and related entries,1.1 ± 0.054,1.14 ± 0.085,1.17 ± 0.1,1.18 ± 0.12,1.21 ± 0.12,1.29 ± 0.11
Q5THR1 and related entries (UniProt Q9H5Z1),1.02 ± 0.061,0.96808 ± 0.00094,1.01 ± 0.011,0.987 ± 0.024,0.991 ± 0.022,0.997 ± 0.023
CTC1 (UniProt Q2NKJ3),0.987 ± 0.0099,0.982 ± 0.02,0.9805 ± 0.0092,0.971 ± 0.035,0.9712 ± 0.0047,0.957 ± 0.029
CEP55 (UniProt Q53EZ4),0.992 ± 0.031,1.03 ± 0.042,0.992 ± 0.031,0.968 ± 0.018,0.926 ± 0.038,0.935 ± 0.043
C19orf54 (UniProt Q5BKX5),1.01 ± 0.016,0.994 ± 0.066,1.01 ± 0.043,0.999 ± 0.027,0.978 ± 0.04,0.985 ± 0.038
TSC22D1 (UniProt Q15714),0.981 ± 0.017,0.998 ± 0.024,0.986 ± 0.019,0.988 ± 0.041,0.9895 ± 0.0053,0.992 ± 0.025
GNPTAB (UniProt Q3T906),1.04 ± 0.025,1.04 ± 0.016,1.02 ± 0.014,1.01 ± 0.036,1.01 ± 0.04,1.04 ± 0.032
UniProt Q15208,1.04 ± 0.035,0.965 ± 0.053,1.01 ± 0.039,0.989 ± 0.033,1.01 ± 0.053,0.961 ± 0.015
MAPRE1 (UniProt Q15691),1.07 ± 0.051,1.15 ± 0.059,1.05 ± 0.093,1.02 ± 0.017,0.995 ± 0.027,1.04 ± 0.12
ARHGAP15 (UniProt Q53QZ3),1.01 ± 0.043,1.013 ± 0.01,1.04 ± 0.039,1.04 ± 0.028,1.05 ± 0.037,1.052 ± 0.0088
UniProt Q3V6T2 and related entries,1.03 ± 0.02,1.04 ± 0.03,1.021 ± 0.0036,0.968 ± 0.028,0.9391 ± 0.0084,0.959 ± 0.011
RALBP1 (UniProt Q15311),0.982 ± 0.037,1.01 ± 0.024,1.03 ± 0.025,1.04 ± 0.014,1.04 ± 0.014,1.08 ± 0.011
HSD17B12 (UniProt Q53GQ0),0.942 ± 0.027,0.882 ± 0.069,0.9126 ± 0.0083,0.946 ± 0.048,0.978 ± 0.034,0.921 ± 0.013
HSP90AA4P (UniProt Q58FG1),0.862 ± 0.051,0.93 ± 0.039,0.878 ± 0.052,0.973 ± 0.074,0.927 ± 0.054,0.931 ± 0.064
UniProt Q15435 and related entries,0.985 ± 0.05,0.98 ± 0.039,0.968 ± 0.035,1.01 ± 0.038,1 ± 0.017,0.976 ± 0.042
ADRM1 (UniProt Q16186),0.927 ± 0.069,0.962 ± 0.094,0.88 ± 0.1,0.876 ± 0.12,0.89 ± 0.12,0.891 ± 0.18
UniProt Q5T8P6 and related entries,1.05 ± 0.042,1.11 ± 0.067,1.1 ± 0.055,1.14 ± 0.061,1.16 ± 0.077,1.21 ± 0.08
TBC1D25 (UniProt Q3MII6),0.9908 ± 0.0091,0.995 ± 0.019,0.9837 ± 0.0051,0.969 ± 0.01,0.9987 ± 0.0092,0.992 ± 0.015
